Some of the results follow. The main result of the screen is listed elsewhere. These columns were measured beside it and carry no call. Compounds called inactive in the main read-out are mostly missing here. The note in brackets gives the kind of curve behind each potency; many fits are weak.
Assay: qHTS Assay for Lipid Storage Modulators in Drosophila S3 Cells;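 on cell number change: cells counted by Cell Tracker Red CMTPX staining in the red channel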
Details: BODIPY lipid droplet fluorescence, 18-24 h; for cell number change: measured here: cell count max response, cells fed with added oleic acid
Summary of the method: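 Drosophila S3 cells loaded with oleic acid (400 uM, as added) and compounds at several concentrations; lipid droplets imaged by 488-nm laser-scanning cytometry, 500–530 nm intensity and object ratio to cell channel. Percent activity normalized to 20 uM Triacsin C.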

[1] = measured here: lipid fluorescence (Fed channel) AC50, cells fed with added oleic acid
[2] = measured here: cell number channel AC50, cells fed with added oleic acid

O=C(NCCc1ccccc1)c1ccc(-c2ccccc2Cl)o1
cell number change: 16.7%
AC50 [1]: 16.4 µM [rising, partial curve]

Cc1cccc(NC(=O)NC2CCCc3ccccc32)c1 (stereo not given)
AC50 [1]: 0.651 µM [rising, partial curve, poor fit]

COc1ccc(N2CCN(C(c3cc(OC)ccc3OC)c3nnnn3Cc3ccco3)CC2)cc1 (stereo not given)
cell number change: 125%
AC50 [2]: 14.6 µM [rising, partial curve]

FC(F)(F)c1cccc(NC(=S)NCc2ccccc2)c1
cell number change: -15.8%
AC50 [1]: 20.6 µM [falling, single point]

O=C(NCCCn1ccnc1)c1cnn2c1NC(c1ccccc1)CC2C(F)(F)F (stereo not given)
cell number change: 40.7%
AC50 [2]: 2.06 µM [rising, partial curve]
AC50 [1]: 2.91 µM [rising, partial curve]

Cc1cc(OC(=O)Cc2cccc3ccccc23)c([N+](=O)[O-])c(=O)[nH]1
cell number change: -4.97%

C=CCNC(=S)NCc1cccnc1
cell number change: 46.4%
AC50 [2]: 0.0731 µM [falling, full curve, poor fit]
AC50 [1]: 4.11 µM [falling, single point]

COc1ccccc1N1CCN(C(=O)CCNC(=O)c2ccco2)CC1
cell number change: -3.16%
AC50 [1]: 0.164 µM [rising, full curve, poor fit]

O=C(c1cccn2c(=O)c3ccccc3nc12)N1CCN(Cc2ccc3c(c2)OCO3)CC1
cell number change: -5.03%
AC50 [2]: 6.51 µM [falling, single point]
AC50 [1]: 6.51 µM [falling, single point]

O=C(CSc1ccc2nnc(-c3ccccn3)n2n1)Nc1ccc2c(c1)OCO2
AC50 [2]: 0.164 µM [rising, full curve, poor fit]
AC50 [1]: 0.206 µM [rising, full curve, poor fit]

CC(=O)c1sc2nc(-c3cccs3)cc(C(F)(F)F)c2c1N
cell number change: -46.2%
AC50 [2]: 29.1 µM [falling, single point]

Nc1ccccc1Sc1cc(Cl)nnc1Cl
AC50 [1]: 6.51 µM [falling, single point]

O=C(Nc1ccccc1-c1nc2ccccc2s1)c1ccco1
cell number change: -25.4%
AC50 [1]: 2.31 µM [rising, single point]

Cc1ccc(C)c(N2CCN(S(=O)(=O)c3ccc4c(c3)CCN4C(=O)CCC(=O)O)CC2)c1
cell number change: -26.3%
AC50 [1]: 0.731 µM [falling, partial curve, poor fit]

CC(NC(=O)COC(=O)[C@@H]1CCCN1S(=O)(=O)c1ccccc1F)C12CC3CC(CC(C3)C1)C2 (stereo not given in full)
cell number change: 25.3%
AC50 [2]: 1.64 µM [rising, single point]
AC50 [1]: 1.3 µM [rising, partial curve]

CCCCN1C(=O)/C(=C2\SC(N3CCCCC3)=NC2=O)c2ccccc21
cell number change: -56.4%
AC50 [2]: 16.4 µM [falling, partial curve]
AC50 [1]: 29.1 µM [falling, single point]

CCc1c(C(C)S(=O)(=O)c2ccc(C)cc2)[nH]c(=O)n1-c1ccc(OC(F)(F)F)cc1 (stereo not given)
cell number change: -2.48%
AC50 [1]: 4.11 µM [rising, partial curve, poor fit]

Cn1c(=O)n(C)c2cc(NC(=O)CSc3nc4ccccc4c(=O)[nH]3)ccc21
cell number change: 1.9%
AC50 [1]: 6.51 µM [rising, single point]

C=C(C)CSc1nncn1/N=C/c1ccc(OC)cc1
cell number change: -43.3%
AC50 [2]: 29.1 µM [falling, single point]
AC50 [1]: 3.26 µM [rising, single point]

CC1(C)CC(=O)c2cc(C(=O)NNc3ccccc3)c(=O)n(-c3ccccc3)c2C1
cell number change: 30.1%
AC50 [2]: 4.61 µM [rising, full curve, poor fit]
AC50 [1]: 5.8 µM [rising, full curve]

COc1ccc(N2CCN(C(=O)C(=O)c3c(C)n(C)c4ccccc34)CC2)cc1
cell number change: 15.6%
AC50 [1]: 0.231 µM [falling, partial curve, poor fit]

CCOC(=O)n1c(=O)n(Cc2ccc(Cl)cc2Cl)c2ccccc21
AC50 [1]: 29.1 µM [rising, single point]

O=C(NC(c1ccccc1)c1ccccc1)C1(c2cccs2)CCOCC1
cell number change: -3.69%
AC50 [1]: 0.291 µM [rising, partial curve, poor fit]

CCOC(=O)c1nn(-c2ccccc2F)c2nc(Nc3ccccc3)cc(=O)n12
cell number change: -36.7%
AC50 [2]: 18.4 µM [falling, single point]
AC50 [1]: 4.11 µM [rising, partial curve]

O=C(NC1CC1)C1CC(=O)N(c2ccccc2)C1 (stereo not given)
cell number change: 6.58%
AC50 [2]: 0.00461 µM [rising, full curve, poor fit]

CC(NC(=O)COC(=O)c1ccc(Cl)cc1O)c1ccc(F)cc1 (stereo not given)
cell number change: -32.2%
AC50 [2]: 29.1 µM [falling, single point]

COc1ccc(C(C)=O)cc1CSc1ccc(S(=O)(=O)N2CCOCC2)cn1
cell number change: -22.1%
AC50 [1]: 0.366 µM [rising, partial curve, poor fit]

CCC(C)NC(=O)CSc1nc2ccsc2c(=O)n1NC(=O)c1ccccc1 (stereo not given)
cell number change: 0.911%
AC50 [1]: 0.13 µM [falling, full curve, poor fit]

CN(C(=O)c1cccs1)c1ccccc1C(=O)O
cell number change: -10.2%
AC50 [1]: 8.2 µM [falling, partial curve]

CCc1cccc(OCC(=O)Nc2cc(Cl)ccc2-n2cncn2)c1
cell number change: 3.16%
AC50 [1]: 18.4 µM [rising, partial curve, poor fit]

COc1ccc(S(=O)(=O)N2CCCC(C(F)(F)F)C2)cc1 (stereo not given)
cell number change: -17.8%

CN(CC(=O)Nc1ccc(Cl)cc1)Cc1cc(=O)n2ccsc2n1
cell number change: -28.6%

CCCOc1ccc(CNC(=O)CCC(=O)n2ncc3cc(C)ccc32)cc1
cell number change: 4.03%

N#Cc1c(/N=C/C=C/c2ccccc2)sc2c1CCCC2
cell number change: 12.6%

CCCn1c(=O)c2c(c3ccccc31)OCC(=O)N2
cell number change: 24.8%
AC50 [2]: 2.59 µM [rising, full curve, poor fit]
AC50 [1]: 4.11 µM [rising, partial curve]

CC(NC(=O)COC(=O)c1ccccc1SCC(=O)N1CCCC1)c1ccccc1 (stereo not given)
AC50 [1]: 1.46 µM [falling, full curve, poor fit]

COc1ccc(NC(=O)c2cccc(OC(F)F)c2)cc1Cl
cell number change: 38.7%
AC50 [2]: 0.184 µM [rising, full curve]

O=C(C[n+]1cccc(CNC(=O)c2ccc(OC(F)F)cc2)c1)Nc1ccc(F)cc1
cell number change: 90.1%
AC50 [2]: 29.1 µM [rising, single point]

O=C(N/N=C1\CCCc2ccccc21)c1ccc([N+](=O)[O-])cc1Cl
cell number change: -36.9%
AC50 [2]: 0.0164 µM [falling, full curve, poor fit]

CN1CCc2c(sc(/N=C/c3cc(Cl)ccc3O)c2C#N)C1
cell number change: 13.1%

Cc1ccc(/C=C(\NC(=O)c2ccccc2)C(=O)OCc2ccccc2)cc1
AC50 [2]: 2.31 µM [rising, single point]
AC50 [1]: 1.64 µM [rising, full curve]

C/C(=N\NC(=O)Cc1c(C)[nH][nH]c1=O)c1cccc(Br)c1
cell number change: 29.6%
AC50 [1]: 3.26 µM [rising, single point]

COc1cccc(NC(=O)CN2C(=O)NC(c3ccccc3)(c3ccccc3)C2=O)c1
cell number change: 4.78%
AC50 [1]: 29.1 µM [rising, single point]

Fc1ccc(CSc2ncnc3ccccc23)cc1
cell number change: -28%
AC50 [2]: 0.731 µM [falling, full curve, poor fit]
AC50 [1]: 1.03 µM [falling, full curve]

COc1cc(NC(=O)C2CC2C)c(C(=O)O)cc1OC (stereo not given)
cell number change: 17%

COc1ccc(/C=C/C(=O)OCC(=O)NC2CCCC2)cc1
cell number change: 34.8%
AC50 [2]: 0.164 µM [rising, partial curve, poor fit]
AC50 [1]: 9.2 µM [rising, partial curve, poor fit]

COc1ccccc1-c1nc(C#N)c(N2CCCCCC2)o1
cell number change: 5.58%
AC50 [1]: 3.26 µM [rising, partial curve]

Cc1ccc(S(=O)(=O)/N=C(/c2ccc(F)cc2)N2CCCCC2)cc1
cell number change: -11.6%
AC50 [1]: 4.11 µM [falling, single point]

Cc1cc(C)c(C)c(S(=O)(=O)N2CCC(C(=O)NCC(c3ccccc3)N(C)C)CC2)c1C (stereo not given)
cell number change: -20.6%
AC50 [1]: 0.00517 µM [rising, full curve, poor fit]

CC(OC(=O)c1cccs1)C(=O)Nc1nc(-c2ccccc2)cs1 (stereo not given)
cell number change: -12.5%
AC50 [1]: 20.6 µM [falling, single point]

COc1ccc(NC(=O)C2Cc3ccccc3CN2C(=O)c2ccccc2)cn1 (stereo not given)
cell number change: 51.7%
AC50 [2]: 29.1 µM [rising, single point]

O=C(N/N=C/c1ccc(Cl)cc1)C1CC12CCC2 (stereo not given)
cell number change: -35.8%
AC50 [2]: 16.4 µM [falling, single point]
AC50 [1]: 18.4 µM [falling, single point]

C=CCOc1ccc(/C=C/C(=O)OCC(=O)NC2CCCCCCC2)cc1
cell number change: 27.5%
AC50 [2]: 0.00517 µM [rising, full curve, poor fit]
AC50 [1]: 29.1 µM [rising, single point]

COc1ccc2oc(C(=O)OCC(=O)NCCc3ccc(S(N)(=O)=O)cc3)c(C)c2c1
cell number change: -41.3%
AC50 [2]: 18.4 µM [falling, partial curve]
AC50 [1]: 7.31 µM [falling, partial curve, poor fit]

COc1ccc(CN(CC(=O)NCc2ccc(F)cc2)C(=O)c2ccco2)cc1
cell number change: 24.4%

CC(C)CC(OC(=O)c1nsc(Cl)c1Cl)C(=O)NC1CCCC1 (stereo not given)
cell number change: 14.3%
AC50 [2]: 6.51 µM [rising, single point]

— PubChem BioAssay AID2685 (National Center for Advancing Translational Sciences (NCATS), 2010)
